Results: patent US11304964B2, “Bolaamphiphilic compounds, compositions and uses thereof” (priority 2012, dated 2022)
At least one structure is not confirmed: it was looked up by name or label, or the drawing left a doubt.

Assay: Analgesia after i.v. injection of enkephalin encapsulated or non-encapsulated in vesicles
Assay type: in vivo

CC(C)C[C@H](NC(=O)[C@H](Cc1ccccc1)NC(=O)CNC(=O)CNC(=O)[C@@H](N)Cc1ccc(O)cc1)C(=O)O [enkephalin]
analgesia (enkephalin administered encapsulated within the vesicles): analgesia is obtained | analgesia (free (non-encapsulated) enkephalin administered together with empty vesicles): did not cause analgesia | analgesia (free (non-encapsulated) enkephalin administered together with empty vesicles, listed as free enkephalin): not
